{"sequences": {"note": "Sequences of proteins named here, by UniProt entry; tags and fusion partners are left off.", "UniProt P08684, whole entry": "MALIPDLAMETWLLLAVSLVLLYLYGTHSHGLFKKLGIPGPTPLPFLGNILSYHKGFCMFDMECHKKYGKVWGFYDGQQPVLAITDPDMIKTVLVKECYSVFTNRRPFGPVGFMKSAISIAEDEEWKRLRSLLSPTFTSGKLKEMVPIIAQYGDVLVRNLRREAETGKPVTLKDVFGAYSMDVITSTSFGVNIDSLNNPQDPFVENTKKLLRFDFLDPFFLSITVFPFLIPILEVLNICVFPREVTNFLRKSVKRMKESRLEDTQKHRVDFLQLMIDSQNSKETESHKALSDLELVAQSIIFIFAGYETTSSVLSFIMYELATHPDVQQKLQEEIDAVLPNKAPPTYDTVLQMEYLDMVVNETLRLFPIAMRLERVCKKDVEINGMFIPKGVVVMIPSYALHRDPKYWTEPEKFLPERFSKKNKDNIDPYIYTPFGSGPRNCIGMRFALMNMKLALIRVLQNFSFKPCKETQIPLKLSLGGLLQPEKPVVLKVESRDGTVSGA"}, "source": "patent US12564595B2", "about": "“Prophylactic and therapeutic pharmaceutical agent for HIV infectious diseases characterized by comprising combination of integrase inhibitor and anti-HIV agent” (Shionogi & Co., Ltd., priority 2019, dated 2026)", "note": "Some of these results come from one statement about several compounds together."}
{"target": "T1, CYP3A4 (Homo sapiens, UniProt P08684)", "T1 construct": "using pooled human liver microsomes; from tissue; host or cells: pooled human liver microsomes", "experiment": "Test Example 5: CYP3A4(MDZ) MBI test", "assay_type": "in vitro ADME", "conditions": "pooled human liver microsomes, midazolam 1-hydroxylation, preincubation 0 min IC/preincubation 30 min IC"}
{"smiles": "CN1C(=O)c2c(O)c(=O)c(C(=O)NCc3ccc(F)cc3F)cn2N2CCCC[C@@H]12", "note": "[Compound I-032]", "CYP3A4 mechanism-based inhibition (MBI), shifted IC": "(−) (if the shifted IC is 1.0 or less, this is deemed to be negative (−))"}
{"smiles": "CN1C(=O)c2c(O)c(=O)c(C(=O)NCc3cccc(Cl)c3F)cn2N2C[C@@H]3CC[C@@H](O3)[C@@H]12", "note": "[II-058]", "CYP3A4 mechanism-based inhibition (MBI), shifted IC": "(−) (if the shifted IC is 1.0 or less, this is deemed to be negative (−))"}
{"smiles": "CCN1C(=O)c2c(O)c(=O)c(-c3nnc(Cc4c(F)cc(F)cc4F)s3)cn2N2[C@H](COC)CC[C@@H]12", "note": "[II-117]", "CYP3A4 mechanism-based inhibition (MBI), shifted IC": "(−) (if the shifted IC is 1.0 or less, this is deemed to be negative (−))"}
{"smiles": "CCN1C(=O)c2c(O)c(=O)c(-c3nnc(Cc4ccc(F)cc4F)s3)cn2N2C[C@@H]3CC[C@@H](C3)[C@@H]12", "note": "[II-130]", "CYP3A4 mechanism-based inhibition (MBI), shifted IC": "(−) (if the shifted IC is 1.0 or less, this is deemed to be negative (−))"}
